Primary screen of a compound library

Measurements from “University of Dundee, Small-Polar-MMV Screening Library” (2021), ChEMBL document CHEMBL3988442.

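Viability assay of Plasmodium falciparum sporozoites; the read-out is not stated. The concentration is filed as 10 mM, unlikely as a test dose, so the dose is not known. Direction is inferred from retests: higher values go with lower viability. Strong results were mostly tested again. Of about 34,000 compounds tested this way, about 280 (0.84%) reached 50% or more in at least one test.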

Values are the deposited “Percent Effect”, in %. The controls that fix the scale are not given in the record; negative values are as filed. The compounds are a random part of those screened. Two or more numbers in one place are separate tests of the same structure; such repeats can differ widely.

| structure | Percent Effect |
|---|---|
| `O=C1NCCN1C1CCN(Cc2nc(-c3ccsc3)no2)CC1` | -4.945 |
| `COc1ccc(C(=O)N2CCC(c3nccn3C(C)C)CC2)cc1OC` | -7.456 |
| `O=C(O)C(F)(F)F.O=C(O)C(F)(F)F.O=C(O)C(F)(F)F.[H][C@@]12CCCO[C@]1([H])[C@H](N(C)Cc1ccco1)CN2Cc1cccnc1` | 0.6076 |
| `CNc1ccc(CC2CCCN(C(=O)c3cnc(C)nc3)C2)nn1` (stereo not given) | -1.178 |
| `[H][C@@]12C[C@H](C(=O)NCc3ccccc3)[C@@]([H])(CN(C(=O)NCC(C)C)C1)O2` | 1.703 |
| `Cc1ccc(-c2cccc(CC3(C(=O)O)CCOCC3)c2)c(C)c1` | -5.038 |
| `CC(=O)N1CCN(Cn2nc(-c3ccc(F)cc3)oc2=O)CC1` | -3.434 |
| `O=C1CN([C@@H]2CC[C@@H](NS(=O)(=O)c3ccc(F)cc3)[C@H]2O)CCN1` | 7.379 |
| `Cc1nc[nH]c1CN1CCN(C2CCOCC2)CC(C(N)=O)C1` (stereo not given) | -1.609 |
| `O=C(O)C(F)(F)F.[H][C@@]12CN(C(=O)[C@H]3CCCO3)C[C@]1([H])C(=O)N(Cc1csc(C)n1)C2` | -6.397 |
| `O=C(C1CCCc2[nH]ncc21)N1CCCC1` (stereo not given) | 7.382 |
| `CCCS(=O)(=O)NC1CCN(c2nnc(C)c(C)c2C#N)CC1` | -1.561 |
| `CC(NC(=O)NCCCN(C)S(C)(=O)=O)c1ccc(Cl)cc1` (stereo not given) | 3.769 |
| `Cl.Cl.[H][C@@]12CN(Cc3ccccc3)C[C@]1([H])[C@@H]2CN` | -2.284 |
| `CN1Cc2ccccc2CC2(CCN(C(=O)[C@H]3CCCO3)CC2)C1=O` | -7.751 |
| `Cc1nc2cc(F)cc(C(=O)N3CCN(CC(C)O)CC3)c2nc1C` (stereo not given) | -4.72 |
| `Cc1ccc2c(n1)N(Cc1cccnc1)CCN(C1CCOCC1)C2.O=C(O)C(F)(F)F.O=C(O)C(F)(F)F.O=C(O)C(F)(F)F` | -6.302 |
| `CCc1c(C)nn(C)c1NC(=O)N1CCCOC(Cn2cccn2)C1` (stereo not given) | -21.39 and -12.25 |
| `COCCCN(Cc1cnc(N2CCCC2)nc1)C1CCN(C)CC1` | -25.02 and -13.02 |
| `CNC(=O)c1cccc(NC(=O)Cn2nc(-c3cccs3)oc2=O)c1` | 5.263 |
| `CC(C)(C)C(=O)N1CCCC1(C(=O)N1CCCC1)c1cnccn1` (stereo not given) | 0.8983 |
| `COc1nn(C)c2c1CCCN(C(=O)c1ccccc1)C2` | -13.98 |
| `Cc1ccccc1Cc1cnc(NC(=O)C2CNC(=O)N2)s1` (stereo not given) | -3.819 |
| `Nc1cc(CCC2CN(Cc3ccc4cc[nH]c4c3)CCO2)ccn1` (stereo not given) | 8.703 |
| `O=C1NC2(CCN(C(=O)Cc3ccsc3)CC2)CC1c1ccncc1` (stereo not given) | 4.134 |
| `CCc1nn(C)c(Cl)c1CN(CC)Cc1cnn(CC)c1` | -0.9516 |
| `O=C(Nc1nnn[nH]1)c1ccc(-n2cccc2)c(F)c1` | -10.88 |
| `CC(=O)N[C@@H]1CN(C(=O)CC2CCOCC2)C[C@H]1O` | 19.23 |
| `CCc1n[nH]c(C2CN(C(=O)c3cnc[nH]3)CCO2)n1` (stereo not given) | -14.1 |
| `CSc1nnc(C2CCN(C(=O)N3CCCC3)CC2)n1C(C)C` | -1.165 |
| `COc1cccc(COCC(=O)N2CCCC(n3ccnc3)C2)c1` (stereo not given) | -2.4 |
| `Cn1nnc2c1C(COCC1CC1)CN(C(=O)Cc1ccsc1)C2` (stereo not given) | -12.18 |
| `Cc1c(C2NC3(CCCC3)C(=O)N2CC2CC2)cc(C#N)n1C` (stereo not given) | -1.001 |
| `CS(=O)(=O)N1CCc2c(cccc2NC(=O)NC2CCCC2)C1` | 4.657 |
| `COc1ccc(-c2nnc(SCC(=O)NCC(C)C)[nH]2)c(OC)c1` | -6.877 |
| `Cc1ccc(CN2CCn3c(CN4CCN(C)CC4)cnc3C2C)s1.O=C(O)C(F)(F)F.O=C(O)C(F)(F)F.O=C(O)C(F)(F)F` (stereo not given) | -3.947 |
| `CCC(C#N)NC(=O)CCNC(=O)C(C)(C)C` (stereo not given) | -4.71 |
| `COCCC(=O)NCCc1nc(N(C)C)ncc1-c1ccncc1` | -4.726 |
| `Cc1noc(Cl)c1CC(=O)N1CCC(Nc2cccnn2)CC1` | 9.5 |
| `CCN(CCSc1ccccc1)C(=O)c1cn([C@H]2CC[C@@H](N)CC2)nn1` | -2.887 and -10.06 |
| `CCOc1ccc(NC(=O)CN2CCN(c3nccn3C)CC2)cc1` | 6.592 |
| `COCCC(=O)N1CCC2(COCc3cnc(N(C)C)nc32)C1` (stereo not given) | 7.131 |
| `CC(C(=O)NCc1ccc(N2CCCCC2)nc1)n1cncn1` (stereo not given) | 4.518 |
| `c1ccc(-n2ncc(CN3CCCC(Cn4cncn4)C3)n2)cc1` (stereo not given) | 3.096 |
| `CCc1nc(-c2cncnc2C2CCNC2)no1` (stereo not given) | 9.563 |
| `O=C(c1ccncc1)N1CCCn2c(CN3CCCCC3)nnc2C1` | -0.8074 |
| `CC[C@H](C)Nc1nccc(-c2cnc3sc(C)cn3c2=O)n1` | 0.9314 |
| `CC(C)Cc1cc(NC(=O)c2ccccc2F)n(C)n1` | -0.1952 |
| `Cc1ccc2[nH]c(C(=O)N3CCC4(CC3)C(=O)NCCN4C)nc2c1` | -16.15 |
| `Cc1cc(C)n(-c2cncc(N3CCN(C(=O)CN(C)C)CC3)n2)n1` | -9.769 |
| `CN1CC(=O)N(c2cccc(F)c2)CC12CCNC2` (stereo not given) | -4.571 |
| `Cc1nn(C)cc1S(=O)(=O)NCC(c1ccccc1Cl)N1CCCC1` (stereo not given) | 1.36 |
| `COc1ccc(CN2CCC3(CC2)CCN(CCN(C)C)C3=O)cc1.O=C(O)C(F)(F)F.O=C(O)C(F)(F)F` | 10.07 |
| `Cc1nc2ccnn2c(C)c1CCC(=O)N1CCN(CCO)CC1` | -7.092 |
| `CS(=O)(=O)c1ccc(NC(=O)CSc2ccc3c(c2)CCC3)cn1` | 2.525 |
| `Cc1cccc(C2CCN(S(=O)(=O)c3cn(C)cn3)CC2)n1` | 11.83 |
| `O=C(O)C(F)(F)F.[H][C@@]12CCN(Cc3ccc(F)cc3)C[C@]1(C(=O)N1CCCO1)CCO2` | 32.04 and -7.206 and -7.226 |
| `CC(NC(=O)NCC1(c2ccc(F)cc2)CC1)c1nncn1C` (stereo not given) | 5.628 |
| `O=C(C1CCOC1)N1CCC2(CCN(Cc3nccs3)CC2)CC1` (stereo not given) | -20.1 |
| `NC(=O)NCC(=O)N1CCC2(CC1)c1ccccc1CC2O` (stereo not given) | 9.386 |
| `OCC(CO)N1CCCC(Cc2ccnc(Nc3ccccn3)c2)C1` (stereo not given) | 12.45 |
| `Cc1ccc(CNC(=O)C2CCN(C(=O)C(C)C)CC2)n1C` | -15.77 |
| `Cc1cnc(CN(C)C2CCN(CCc3cnn(C)c3)C2)o1` (stereo not given) | -11.52 |
| `Cc1ccnc(N2CCN(Cc3ccccc3)CC(O)C2)c1` (stereo not given) | -3.638 |
| `COc1ccccc1C(=O)N1CCOC2(CCCN(C(C)=O)C2)C1` (stereo not given) | 0.2577 |
| `CC(C)Nc1nc2c(cc1C(=O)N(C)C)CCNCC2.O=C(O)C(F)(F)F.O=C(O)C(F)(F)F` | 2.056 |
| `Cc1cn(CC(=O)NC2CCN(S(C)(=O)=O)CC2)c2ccccc12` | 3.23 |
| `Cc1cc2ccccc2n1CCC(=O)NCc1ncc[nH]1` | -4.621 |
| `O=C(O)C(F)(F)F.c1cc(CN2Cc3nnn(CC4CC4)c3C(COCC3CC3)C2)co1` (stereo not given) | -12.19 |
| `CCCc1nncn1-c1cc(OC)ccc1OC` | -10.3 |
| `[H][C@@]12OCCN(C(=O)C3CCOCC3)[C@@]1([H])CC[C@@H]2OCc1ccncc1` | -16.69 |
| `CC(C(=O)Nc1ccc(N2CCCCC2)nc1)n1ccnc1` (stereo not given) | -2.627 |
| `COc1ccc(C2CNCCN2C(=O)c2nccc3ccccc23)cc1` (stereo not given) | 3.81 |
| `Cc1n[nH]c(C)c1NC(=O)CN1CCn2c(nnc2C(C)C)C1` | 0.2312 |
| `CCN1CCN(c2ccc(CNC(=O)c3ccc(Cl)o3)cn2)CC1` | -1.471 |
| `CN(C)C(=O)c1ccc(-c2cccc3c2CCNC3)o1` | -8.769 |
| `O=C(O)C(F)(F)F.O=C(O)C(F)(F)F.O=C(O)C(F)(F)F.c1cnc(N2CCC3(CCN(Cc4cccnc4)CC3)CC2)nc1` | -0.1189 |

8 of the entries, repeated:

structure,Percent Effect
Cc1ccnc(N2CCN(Cc3ccccc3)CC(O)C2)c1 (stereo not given),-3.638
CNc1ccc(CC2CCCN(C(=O)c3cnc(C)nc3)C2)nn1 (stereo not given),-1.178
O=C(O)C(F)(F)F.O=C(O)C(F)(F)F.O=C(O)C(F)(F)F.c1cnc(N2CCC3(CCN(Cc4cccnc4)CC3)CC2)nc1,-0.1189
CC(C)Cc1cc(NC(=O)c2ccccc2F)n(C)n1,-0.1952
CCc1nn(C)c(Cl)c1CN(CC)Cc1cnn(CC)c1,-0.9516
CC(NC(=O)NCCCN(C)S(C)(=O)=O)c1ccc(Cl)cc1 (stereo not given),3.769
Cc1c(C2NC3(CCCC3)C(=O)N2CC2CC2)cc(C#N)n1C (stereo not given),-1.001
CN1Cc2ccccc2CC2(CCN(C(=O)[C@H]3CCCO3)CC2)C1=O,-7.751